In article PMC7939381, “MMP activation–associated aminopeptidase N reveals a bivalent 14-3-3 binding motif” (The Journal of Biological Chemistry, 2021):
These are yes or no findings as the source states them, for the method shown. Binding seen in cells or lysates may run through a third protein. Some results given as binding are weak or reduced against the parent protein; the word gives no strength.

By UniProt entry, the sequences of proteins in these tests, tags left out.
UniProt P31946: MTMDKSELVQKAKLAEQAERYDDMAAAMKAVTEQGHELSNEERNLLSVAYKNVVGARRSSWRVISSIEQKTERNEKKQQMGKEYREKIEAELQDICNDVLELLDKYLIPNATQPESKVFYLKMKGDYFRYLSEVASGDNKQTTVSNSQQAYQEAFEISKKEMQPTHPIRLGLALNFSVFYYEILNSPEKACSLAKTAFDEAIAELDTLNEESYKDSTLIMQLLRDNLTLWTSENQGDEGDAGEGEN

Columns and labels:
[1] = molecular target: T1, biotinylated peptide 1, APN 38–46 pSer43 (human); assay: pull-down; biotinylated peptide on streptavidin Sepharose beads, incubated 120 min in lysate of E. coli overexpressing His6-14-3-3; 50 mM HEPES pH 7.4, 250 mM NaCl, 20 mM MgCl2; SDS-PAGE, NTA-Atto488 and Coomassie stain; only the target purified
T1 sequence (peptide, phosphoserine at 43 (NKNANpSSPV); biotin via a PEG4 linker): NKNANSSPV

[2] = molecular target: T2, biotinylated peptide 6, APN 39–47 pSer44 (human); assay: as above
T2 sequence (peptide, phosphoserine at 44 (KNANSpSPVA); biotin via a PEG4 linker): KNANSSPVA

binding [1]: binds
binding [2]: no binding
Substance: 14-3-3β/α, full length, N-terminally His6-tagged (from UniProt P31946 1-246)
